Data published in PubChem BioAssay (EPA / NIEHS).
For part of these data: The hits were mostly taken out for another list; the other results follow. The entries are a selection whose mix differs from that of the whole data set. Inconclusive results are not listed. Active and inactive are the calls of the source. Rule for the calls, unless noted: active = hit-call score of the fitted dose curve at least 0.9, where 1 is the maximum; inactive = score below 0.9.

Chains of the proteins cited; added tags and fusions are not shown. Lines headed by an entry give the natural chain unless they say otherwise; changes in a name come on top.
UniProt P10275: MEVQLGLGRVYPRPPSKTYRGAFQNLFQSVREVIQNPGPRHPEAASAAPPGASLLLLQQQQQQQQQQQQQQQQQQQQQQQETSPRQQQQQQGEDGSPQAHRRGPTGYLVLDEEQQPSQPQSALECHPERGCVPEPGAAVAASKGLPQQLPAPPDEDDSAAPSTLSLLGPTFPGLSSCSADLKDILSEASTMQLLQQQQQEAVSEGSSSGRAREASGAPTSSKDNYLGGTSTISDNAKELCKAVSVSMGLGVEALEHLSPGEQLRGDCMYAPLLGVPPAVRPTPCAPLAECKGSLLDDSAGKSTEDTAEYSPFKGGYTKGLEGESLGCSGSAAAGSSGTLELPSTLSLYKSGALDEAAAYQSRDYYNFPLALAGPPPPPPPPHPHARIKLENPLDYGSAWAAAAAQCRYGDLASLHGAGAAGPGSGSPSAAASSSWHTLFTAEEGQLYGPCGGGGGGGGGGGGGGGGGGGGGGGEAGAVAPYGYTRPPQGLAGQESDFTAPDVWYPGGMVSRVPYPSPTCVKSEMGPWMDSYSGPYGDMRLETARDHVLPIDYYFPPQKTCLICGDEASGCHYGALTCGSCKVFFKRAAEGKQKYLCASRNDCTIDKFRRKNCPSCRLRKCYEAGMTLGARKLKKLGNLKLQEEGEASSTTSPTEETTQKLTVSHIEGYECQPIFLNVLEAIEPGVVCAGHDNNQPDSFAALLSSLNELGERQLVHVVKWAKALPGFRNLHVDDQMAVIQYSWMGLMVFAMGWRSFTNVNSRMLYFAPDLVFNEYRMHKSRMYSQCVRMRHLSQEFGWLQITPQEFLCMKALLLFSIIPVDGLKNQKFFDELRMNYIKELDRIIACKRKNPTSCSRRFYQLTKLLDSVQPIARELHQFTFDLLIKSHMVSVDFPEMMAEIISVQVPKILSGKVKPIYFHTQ
UniProt P19838: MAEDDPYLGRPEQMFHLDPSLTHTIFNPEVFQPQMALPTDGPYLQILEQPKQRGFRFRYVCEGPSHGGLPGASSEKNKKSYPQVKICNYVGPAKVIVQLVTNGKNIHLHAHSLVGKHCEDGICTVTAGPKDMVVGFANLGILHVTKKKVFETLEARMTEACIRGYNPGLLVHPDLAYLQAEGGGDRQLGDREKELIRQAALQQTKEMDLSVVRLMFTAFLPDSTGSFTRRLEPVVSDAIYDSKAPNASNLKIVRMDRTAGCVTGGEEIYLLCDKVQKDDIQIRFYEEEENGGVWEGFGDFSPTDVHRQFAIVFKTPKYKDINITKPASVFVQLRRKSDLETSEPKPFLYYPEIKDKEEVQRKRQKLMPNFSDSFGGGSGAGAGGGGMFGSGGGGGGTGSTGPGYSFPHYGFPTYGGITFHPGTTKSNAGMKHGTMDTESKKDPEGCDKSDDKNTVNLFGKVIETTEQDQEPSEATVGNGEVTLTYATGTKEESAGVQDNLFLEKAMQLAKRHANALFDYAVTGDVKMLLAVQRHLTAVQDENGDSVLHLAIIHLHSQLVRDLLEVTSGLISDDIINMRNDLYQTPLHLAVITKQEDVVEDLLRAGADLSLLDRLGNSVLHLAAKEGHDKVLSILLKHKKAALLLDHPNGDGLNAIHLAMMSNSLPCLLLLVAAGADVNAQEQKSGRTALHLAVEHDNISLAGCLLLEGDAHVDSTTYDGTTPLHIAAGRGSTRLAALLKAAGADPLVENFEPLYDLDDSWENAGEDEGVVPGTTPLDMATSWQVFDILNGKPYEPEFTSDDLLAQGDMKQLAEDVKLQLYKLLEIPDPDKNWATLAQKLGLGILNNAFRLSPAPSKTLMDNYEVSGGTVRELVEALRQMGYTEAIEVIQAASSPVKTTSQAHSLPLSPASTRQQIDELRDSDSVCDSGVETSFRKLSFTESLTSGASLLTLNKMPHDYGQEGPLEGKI
UniProt P22680: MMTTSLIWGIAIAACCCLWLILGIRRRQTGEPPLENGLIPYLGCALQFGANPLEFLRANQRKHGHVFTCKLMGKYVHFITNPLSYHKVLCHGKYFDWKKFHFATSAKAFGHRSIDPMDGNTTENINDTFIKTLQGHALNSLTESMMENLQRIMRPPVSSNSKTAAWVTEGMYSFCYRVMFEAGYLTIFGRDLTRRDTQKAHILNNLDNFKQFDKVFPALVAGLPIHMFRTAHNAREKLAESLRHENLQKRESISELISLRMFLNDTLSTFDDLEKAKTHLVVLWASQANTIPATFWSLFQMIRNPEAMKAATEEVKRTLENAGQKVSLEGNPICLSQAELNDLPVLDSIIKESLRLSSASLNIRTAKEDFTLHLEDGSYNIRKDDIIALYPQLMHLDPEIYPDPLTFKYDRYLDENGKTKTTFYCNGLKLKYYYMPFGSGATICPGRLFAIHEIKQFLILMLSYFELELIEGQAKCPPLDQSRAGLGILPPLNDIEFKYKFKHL

Tests used:
[1] = read-out: Cytochrome P450 (CYP1A2), CYP1A2 (gene 1544); assay: LTEA_HepaRG_CYP1A2: Life Technologies and Expression Analysis (LTEA) Assay for Cytochrome P450 (CYP1A2) using HepaRG (AID 2283479); conditions: actives raise or lower the signal; mRNA level, 48 h
Summary of the method: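 HepaRG, 48 h exposure, top 100 uM, half-log 8-pt, 0.5% DMSO vehicle, duplicates. Readout: TaqMan qRT-PCR of CYP1A2 mRNA, housekeeping-normalized (ACTB/GAPDH/POLR2A). Gain/loss fit relative to DMSO baseline.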

AR (gene 367) = AR (gene 367) (UniProt P10275); assay: ACEA_AR_antagonist_80hr: ACEA Biosciences xCELLigence Real-Time Cell Analysis on Androgen Receptor Antagonism for Proliferation (AID 2283787; active = hit-call score of the fitted dose curve at least 0.9, where 1 is the maximum;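 note: 22Rv1 human prostate cancer cells with growth followed by electrical impedance; hits lower the impedance growth signal relative to DMSO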)
Summary of the method: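 Impedance-based real-time growth of 22Rv1 prostate cells, read 80 h after dosing. Eight concentrations, 1:4 series, top 100 uM final (0.5% DMSO), n = 2; signal decrease scored against DMSO.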

[2] = read-out: cysteine-aspartic acid protease (CASP8), CASP8 (gene 841); assay: LTEA_HepaRG_CASP8: Life Technologies and Expression Analysis (LTEA) Assay for cysteine-aspartic acid protease (CASP8) using HepaRG (AID 2283480); conditions: actives raise or lower the signal; mRNA level, 48 h
Summary of the method: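 CASP8 transcript measured by TaqMan qRT-PCR with ACTB/GAPDH/POLR2A normalization, after 48 h chemical exposure of HepaRG cells in serum-free induction medium. Eight concentrations, top 100 uM, half-log steps, 0.5% DMSO vehicle; fits in both directions versus DMSO.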

CYP2E1 (gene 1571) = assay: LTEA_HepaRG_CYP2E1: Life Technologies and Expression Analysis (LTEA) Assay for CYP2E1 using HepaRG (AID 2283485); conditions: actives raise or lower the signal; mRNA level, 48 h
Summary of the method: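 Assay uses 48 h exposure of HepaRG hepatic cells, eight concentrations to 100 uM. Expression of CYP2E1 is quantified by TaqMan qRT-PCR with ACTB, GAPDH and POLR2A normalization; curves fitted in both directions relative to vehicle.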

[3] = read-out: Nuclear factor NF-kappa-B p105 subunit (Homo sapiens) (UniProt P19838); assay: LTEA_HepaRG_NFKB1: Life Technologies and Expression Analysis (LTEA) Assay for Nuclear Factor Kappa B Subunit 1 (NFKB1) using HepaRG (AID 2283521); conditions: actives raise or lower the signal; mRNA level, 48 h
Summary of the method: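 Differentiated human HepaRG cells were exposed for 48 h in serum-free induction medium to eight concentrations (top 100 uM, half-log steps, 0.5% DMSO), in duplicate. NFKB1 mRNA was measured by TaqMan qRT-PCR, normalized to ACTB/GAPDH/POLR2A, and fitted bidirectionally against DMSO.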

[4] = STM_H9_OrnithineISnorm_perc: Stemina devTOX quickPredict H9 human embryonic stem cell (hESC)-based Assay for Ornithine (ORN) Metabolite Biomarker, Normalized (AID 2283712);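 note: ornithine released into spent medium during last day measured by mass spectrometry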
Summary of the method: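 Metabolite endpoint from spent media of pluripotent H9 cells treated 72 h with daily re-feeding; ornithine measured by UPLC-HRMS against its 13C spike-in and referenced to the median 0.1% DMSO vehicle response.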

[5] = CCTE_Shafer_MEA_dev_per_burst_interspike_interval: CCTE's Neural Network Formation Assay for Burst Interspike Interval, Shafer Lab (AID 2284044)
Summary of the method: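 Readout is the average time between spikes inside single-electrode bursts, taken as a well mean across bursting electrodes. Cortical neurons from rat developed networks on MEA plates under continuous 12-day exposure; recordings on days 5, 7, 9 and 12 were integrated by trapezoidal AUC.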

[6] = read-out: Bcl-2 (BAD) gene, BAD (gene 572); assay: LTEA_HepaRG_BAD: Life Technologies and Expression Analysis (LTEA) Assay for Bcl-2 (BAD) gene using HepaRG (AID 2283469); conditions: actives raise or lower the signal; mRNA level, 48 h
Summary of the method: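 Read-out: qRT-PCR of BAD mRNA, normalized to three housekeeping genes. Human HepaRG cultures got 48 h chemical exposure in 0.5% DMSO, duplicate eight-point half-log series topping at 100 uM. Gain or loss of signal fitted versus DMSO vehicle.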

[7] = read-out: matrix metalloproteinase-10 (MMP10), MMP10 (gene 4319); assay: LTEA_HepaRG_MMP10: Life Technologies and Expression Analysis (LTEA) Assay for matrix metalloproteinase-10 (MMP10) using HepaRG (AID 2283517); conditions: actives raise or lower the signal; mRNA level, 48 h
Summary of the method: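 Expression measured by TaqMan qRT-PCR with ACTB/GAPDH/POLR2A normalisation after 48 h chemical exposure of HepaRG cells. Eight half-log concentrations, top 100 uM, 0.5% DMSO vehicle, duplicates; gain or loss fitted against vehicle.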

[8] = Tanguay_ZF_120hpf_TR_legacy: (Legacy) Oregon State University Tanguay Lab 120 Hour Post-fertilization zebrafish Assay for Touch Response (AID 2283667; active = hit-call score of the fitted dose curve at least 0.9, where 1 is the maximum)
[9] = read-out: alkyl and aryl transferase (GSTA2), GSTA2 (gene 2939); assay: CLD_GSTA2_48hr: CellzDirect (CLD) Gene Expression Assay for alkyl and aryl transferase (GSTA2) at 48 hours (AID 2283708; active = hit-call score of the fitted dose curve at least 0.9, where 1 is the maximum;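 note: active means mRNA induction above DMSO vehicle baseline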)
Method: CLD_48hr is a cell-based, multiplexed-readout assay that uses hepatocyte, a human liver primary cell, with measurements taken at 48 hours after chemical dosing in a 96-well plate.CLD_GSTA2_48hr is one of 16 assay component(s) measured or calculated from the CLD_48hr assay. It is designed to make measurements of mRNA induction, a form of inducible reporter, as detected with chemiluminescence signals by Quantitative Nuclease Protection Assay (qNPA) technology.Data from the assay component CLD_GSTA2_48hr was analyzed at the endpoint, CLD_GSTA2_48hr, in the positive analysis fitting direction relative to DMSO as the negative control and baseline of activity. […] Furthermore, this assay endpoint can be referred to as a primary readout. […]
Human hepatocyte cultures were treated daily for two consecutive days with fresh dosing solutions containing appropriate concentrations of the 320 ToxCast chemicals (chemical identities were blinded to CellzDirect and other ToxCast collaborators), vehicle control (0.2% DMSO), and positive control inducers as summarized in Table 1. […] Cultures for each treatment group (i.e., media, vehicle [0.2% DMSO], positive control inducers [multiple concentrations], and the ToxCast chemicals [multiple concentrations]) were observed and cell morphology was assessed relative to vehicle control cultures at each harvest time point (0, 6, 24, or 48 h). […]

[10] = read-out: ABC Transporter (ABCC3), ABCC3 (gene 8714); assay: LTEA_HepaRG_ABCC3: Life Technologies and Expression Analysis (LTEA) Assay for ABC Transporter (ABCC3) using HepaRG (AID 2283462); conditions: actives raise or lower the signal; mRNA level, 48 h
Summary of the method: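 qRT-PCR read-out of ABCC3 transcript, normalized to three housekeeping genes (ACTB, GAPDH, POLR2A), after 48 h chemical exposure of human HepaRG cells. Eight half-log concentrations, highest 100 uM, in 0.5% DMSO; gain or loss fitted relative to DMSO baseline.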

[11] = read-out: ATP-citrate lyase (ACLY), ACLY (gene 47); assay: LTEA_HepaRG_ACLY: Life Technologies and Expression Analysis (LTEA) Assay for ATP-citrate lyase (ACLY) using HepaRG (AID 2283466); conditions: actives raise or lower the signal; mRNA level, 48 h
Summary of the method: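 ACLY mRNA quantified by qRT-PCR on Fluidigm arrays against three housekeeping genes, after 48 h chemical treatment of HepaRG cells (top concentration 100 uM, half-log steps, 0.5% DMSO vehicle). Up- or down-regulation fitted relative to DMSO.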

[12] = read-out: Alkaline Phosphatase, Placental (ALPP) gene, ALPP (gene 250); assay: LTEA_HepaRG_ALPP: Life Technologies and Expression Analysis (LTEA) Assay for Alkaline Phosphatase, Placental (ALPP) gene using HepaRG (AID 2283468); conditions: actives raise or lower the signal; mRNA level, 48 h
Summary of the method: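 qRT-PCR readout of ALPP mRNA (Fluidigm TaqMan), normalized to ACTB/GAPDH/POLR2A, after 48 h chemical exposure of HepaRG cells; 8-point half-log series, top 100 uM, 0.5% DMSO vehicle. Bidirectional curve fit versus DMSO baseline.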

[13] = read-out: Cytochrome P450 7A1 (Homo sapiens) (UniProt P22680); assay: LTEA_HepaRG_CYP7A1: Life Technologies and Expression Analysis (LTEA) Assay for Cytochrome P450 7A1 (CYP7A1) using HepaRG (AID 2283496); conditions: actives raise or lower the signal; mRNA level, 48 h
Summary of the method: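 Using 0.5% DMSO as vehicle and baseline, chemicals were tested in duplicate over an 8-point range from 100 uM on HepaRG cells for 48 h; qRT-PCR signals were normalised to ACTB, GAPDH and POLR2A.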

**Q.** Which results are given for CC(C)Oc1cc(-n2nc(C(C)(C)C)oc2=O)c(Cl)cc1Cl?
**A.** AC50 [1]: active: 11.8 µM; AC50 (AR (gene 367)): active: 67.6 µM

**Q.** For CC(C)N(C(=O)SCC(Cl)=C(Cl)Cl)C(C)C, which outcome [2] is on record?
**A.** inactive

**Q.** And the outcome (CYP2E1 (gene 1571))?
**A.** inactive

**Q.** And the outcome [3]?
**A.** inactive

**Q.** What about the AC50 [4] of the same molecule?
**A.** active: 9.92 µM

**Q.** What about the outcome [5] of the same molecule?
**A.** inactive

**Q.** What does the source list for C[Si](Cn1cncn1)(c1ccc(F)cc1)c1ccc(F)cc1?
**A.** outcome [6]: inactive; AC50 [7]: active: 58.2 µM; AC50 [8]: active: 48 µM; AC50 [9]: active: 15.6 µM

**Q.** For Nc1ccc(N=Nc2ccccc2)cc1, which AC50 [10] is on record?
**A.** active: 11 µM

**Q.** Which outcome [11] does the source give for CNC(=O)Oc1ccccc1OC(C)C here?
**A.** inactive

**Q.** What about the outcome [12] of the same molecule?
**A.** inactive

**Q.** What about the AC50 [13] of the same molecule?
**A.** active: 9.92 µM
